Values quoted from earlier work, collected in US20120101005A1, “METHODS FOR PREDICTING THE TOXICITY OF A CHEMICAL” (GE HEALTHCARE UK LIMITED, priority 2009, published 2012).
Some of these results come from one statement about several compounds together. For at least one compound, name, drawing or mass did not settle the structure. Some compounds share one range, which may span the group rather than tell each member.

Tested on: human embryonic stem cells

## O=C(O)C1=CC(=C(c2ccc(O)c(C(=O)O)c2)c2ccc(O)c(C(=O)O)c2)C=CC1=O [ATA]
  concentration at which reported as inhibitor of human embryonic stem cell cardiomyocyte differentiation: 0.01 to 100 µM

## COc1ccc(C[C@H]2NC[C@H](O)[C@H]2OC(C)=O)cc1 [anisomycin]
  concentration at which reported as inhibitor of human embryonic stem cell cardiomyocyte differentiation: 0.01 to 100 µM
